Results deposited as PubChem BioAssay AID504791 (Drosophila RNAi Screening Center, 2011)
Assay: 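Factors in Argonaute-based small RNA production and activity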 (primary screen). System: Drosophila S2-derived reporter cells. Knock-down reagent: long dsRNA against Drosophila genes, about 150-250 ng dsRNA per well (siRNA assay); about 80-120 ng (miRNA assay). Duration: about 5 days (siRNA assay); about 4 days (miRNA assay). Challenge: copper sulfate induction of reporters: 25 µM (siRNA assay); 200 mM stated (miRNA assay), 1-2 days before reading. Measured: 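Per-well ratio of Renilla over firefly light, expressed relative to that plate's average ratio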. Hit rule: 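First-pass picks had plate-scaled ratios over 1.5 for the siRNA assay, over 1.6 for the miRNA assay, or under 0.6; two distinct dsRNAs had to score alike on retest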.
In all, the deposit lists about 23,000 reagents; shown is an unselected part of those with a known target gene and a result. Over the whole deposit, 199 (0.86%) are marked active. 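Plate-scaled ratios behind the calls are not deposited; printed light signals are raw; many rows marked increased or decreased are still called inactive.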 Not stated in the record: the direction of the score.

gene,dsRNA,stable siRNA reporter change,miRNA reporter change,"stable assay Renilla, run 1 (luminescence)","stable assay firefly, run 1 (luminescence)",outcome
CG13344,DRSC06378,,,8042,3.91e5,inactive
Rop,DRSC08693,,,7215,4.00e5,inactive
CG18545,DRSC15343,,,6267,4.12e5,inactive
fal,DRSC11087,,,10399,3.94e5,inactive
GstZ1,DRSC16478,,,7850,3.91e5,inactive
CG31093,DRSC15689,,,6355,3.17e5,inactive
RpL23A,DRSC08694,,,10272,3.30e5,inactive
RpL23A,DRSC22035,,,8361,4.40e5,inactive
CG9257,DRSC03173,,,6230,3.48e5,inactive
CG6985,DRSC16164,,,6582,2.81e5,inactive
snama,DRSC04049,,,13506,1.56e6,inactive
CG34457,DRSC06924,,,6191,2.78e5,inactive
CG10747,DRSC02104,,,7034,4.71e5,inactive
dimm,DRSC03100,,,6622,3.65e5,inactive
Spn42Db,DRSC05009,,,7471,4.70e5,inactive
CG11251,DRSC09825,,,7498,4.48e5,inactive
SREBP,DRSC11182,reporter ratio raised past the hit cutoff,,5295,1.84e5,active
Cth,DRSC07422,,,10659,4.01e5,inactive
CG31997,DRSC17105,,,7856,3.89e5,inactive
Hk,DRSC17638,,reporter ratio raised past the hit cutoff,4760,4.54e5,inactive
Hk,DRSC18138,,,5416,2.11e5,inactive
Hk,DRSC18674,,,4080,3.38e5,inactive
CG42258,DRSC19741,,,5500,6.82e5,inactive
CG42258,DRSC19783,,,4231,3.98e5,inactive
CG42258,DRSC23161,,,4664,4.74e5,inactive
CG16953,DRSC15167,,,8987,3.33e5,inactive
CheB38b,DRSC22874,,,3484,4.44e5,inactive
CG7492,DRSC10855,,,7731,4.00e5,inactive
Cyp4e2,DRSC07371,,,7749,4.20e5,inactive
Nep2,DRSC12126,,,9185,3.91e5,inactive
Nep2,DRSC21398,,,9020,4.99e5,inactive
CG18622,DRSC15360,,,7324,4.82e5,inactive
PHDP,DRSC04635,,,5348,3.04e5,inactive
Psf2,DRSC00516,,,8290,5.99e5,inactive
TfAP-2,DRSC11601,,,7735,5.84e5,inactive
Claspin,DRSC08308,,,4140,4.39e5,inactive
CG10702,DRSC02097,,,2.23e5,1.02e6,inactive
mus101,DRSC19388,,,5714,5.74e5,inactive
v,DRSC20383,,,7818,5.80e5,inactive
CG32071,DRSC22298,,,8914,4.52e5,inactive
CG9004,DRSC08617,,,5966,4.60e5,inactive
CG31704,DRSC22118,,,10101,6.72e5,inactive
CG42650,DRSC12462,,,5146,3.00e5,inactive
Lgr4,DRSC18969,,,7120,6.37e5,inactive
Lgr4,DRSC18970,,,5510,4.48e5,inactive
Lgr4,DRSC19884,,,5579,4.27e5,inactive
raw,DRSC03599,,,8994,5.34e5,inactive
raw,DRSC03600,,,6926,3.98e5,inactive
edin,DRSC09488,,,6099,5.77e5,inactive
CG12219,DRSC17829,,,5546,3.05e5,inactive
mtd,DRSC12131,,,7471,3.71e5,inactive
mtd,DRSC12380,,,7346,4.09e5,inactive
mtd,DRSC12381,,,7639,3.83e5,inactive
Zdhhc8,DRSC18044,,reporter ratio raised past the hit cutoff,4515,3.02e5,inactive
Zdhhc8,DRSC18122,,,5343,4.18e5,inactive
CG32032,DRSC08961,,,5872,3.48e5,inactive
CG5346,DRSC15778,,,9503,4.92e5,inactive
CG6650,DRSC10685,reporter ratio lowered past the hit cutoff,,9862,6.44e5,inactive
Tctp,DRSC15649,,,6107,3.56e5,inactive
CG43127,DRSC09039,,,4811,3.78e5,inactive
Cpr66D,DRSC10640,,,5287,2.53e5,inactive
Cpr66D,DRSC10646,,reporter ratio lowered past the hit cutoff,5259,2.44e5,inactive
Cpr66D,DRSC23178,,,3655,3.63e5,inactive
yem,DRSC14865,,,6924,3.70e5,inactive
yem,DRSC17097,,,7158,3.82e5,inactive
CG14949,DRSC08408,,,6604,3.58e5,inactive
CG11226,DRSC11639,,,7639,3.95e5,inactive
CG32284,DRSC08025,,,4919,4.73e5,inactive
Naa20A,DRSC19579,,,8362,5.95e5,inactive
Galphas,DRSC04616,,,26994,1.26e6,inactive
l(2)SH0834,DRSC02854,,,7298,3.42e5,inactive
ro,DRSC17046,,,4607,3.03e5,inactive
Src64B,DRSC08700,,,6148,4.28e5,inactive
CG15446,DRSC20518,,,6171,3.70e5,inactive
CG16786,DRSC04281,,,5651,3.31e5,inactive
RpL27,DRSC15638,,,7467,2.84e5,inactive
IntS12,DRSC15818,,,8746,5.10e5,inactive
nSyb,DRSC08727,,,12225,4.28e5,inactive
Rpn9,DRSC16840,,,7086,2.44e5,inactive
Rgl,DRSC11267,,,6395,4.97e5,inactive
CG3909,DRSC14150,,,4419,4.17e5,inactive
janA,DRSC16972,,,6948,4.27e5,inactive
Dh44,DRSC12747,,,7080,4.94e5,inactive
Dh44,DRSC16409,,,6812,3.94e5,inactive

A portion taken from the entries so far, as a working copy:
gene,dsRNA,stable siRNA reporter change,miRNA reporter change,"stable assay Renilla, run 1 (luminescence)","stable assay firefly, run 1 (luminescence)",outcome
CG9257,DRSC03173,,,6230,3.48e5,inactive
CG6985,DRSC16164,,,6582,2.81e5,inactive
snama,DRSC04049,,,13506,1.56e6,inactive
CG34457,DRSC06924,,,6191,2.78e5,inactive
CG10747,DRSC02104,,,7034,4.71e5,inactive
dimm,DRSC03100,,,6622,3.65e5,inactive
Spn42Db,DRSC05009,,,7471,4.70e5,inactive
CG11251,DRSC09825,,,7498,4.48e5,inactive
SREBP,DRSC11182,reporter ratio raised past the hit cutoff,,5295,1.84e5,active
Cth,DRSC07422,,,10659,4.01e5,inactive
CG31997,DRSC17105,,,7856,3.89e5,inactive
Hk,DRSC17638,,reporter ratio raised past the hit cutoff,4760,4.54e5,inactive
Hk,DRSC18138,,,5416,2.11e5,inactive
Hk,DRSC18674,,,4080,3.38e5,inactive
